# Some entries share one result that the patent states for a list of compounds.
# Chains of the proteins cited; added tags and fusions are not shown. Residues count along the entry.
# UniProt Q07820, 171-327: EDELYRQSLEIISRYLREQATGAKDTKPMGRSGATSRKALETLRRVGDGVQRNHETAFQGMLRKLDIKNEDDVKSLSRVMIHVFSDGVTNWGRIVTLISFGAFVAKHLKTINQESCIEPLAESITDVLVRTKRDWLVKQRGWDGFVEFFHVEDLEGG
# Target: Mcl-1 (Homo sapiens, UniProt Q07820)
# Test: FP-based binding assay, Mcl-1
smiles,measurement,value
"CCCCSc1cc(NS(=O)(=O)c2ccc(Br)cc2)c2ccccc2c1OC [Compound 40p, 4-Bromo-N-(3-(butylthio)-4-methoxynaphthalen-1-yl)benzenesulfonamide]",no binding to Mcl-1 up to (concentration),> 800 µM

# Source: patent publication US9486422B2, “Small molecule inhibitors of Mcl-1 and the uses of thereof” (THE REGENTS OF THE UNIVERSITY OF MICHIGAN, priority 2011, dated 2016)
